The target in assay [1] is GFP-KAP1 (Krüppel-associated box domain-associated protein 1), wild type, expressed in HEK293 cells (human) (UniProt Q13263). The assay can be described thus: co-IP; GFP-KAP1 immunoprecipitated from transfected HEK293 cells; cells treated with 5 μM etoposide for 4 h with or without 20 μM KU55933 (ATMi) or 50 nM AZD7762; partners checked on western blot. A general note: A western blot detects proteins with antibodies after separation by electrophoresis.

Sequences of proteins named here, by UniProt entry; tags and fusion partners are left off.
UniProt Q13263: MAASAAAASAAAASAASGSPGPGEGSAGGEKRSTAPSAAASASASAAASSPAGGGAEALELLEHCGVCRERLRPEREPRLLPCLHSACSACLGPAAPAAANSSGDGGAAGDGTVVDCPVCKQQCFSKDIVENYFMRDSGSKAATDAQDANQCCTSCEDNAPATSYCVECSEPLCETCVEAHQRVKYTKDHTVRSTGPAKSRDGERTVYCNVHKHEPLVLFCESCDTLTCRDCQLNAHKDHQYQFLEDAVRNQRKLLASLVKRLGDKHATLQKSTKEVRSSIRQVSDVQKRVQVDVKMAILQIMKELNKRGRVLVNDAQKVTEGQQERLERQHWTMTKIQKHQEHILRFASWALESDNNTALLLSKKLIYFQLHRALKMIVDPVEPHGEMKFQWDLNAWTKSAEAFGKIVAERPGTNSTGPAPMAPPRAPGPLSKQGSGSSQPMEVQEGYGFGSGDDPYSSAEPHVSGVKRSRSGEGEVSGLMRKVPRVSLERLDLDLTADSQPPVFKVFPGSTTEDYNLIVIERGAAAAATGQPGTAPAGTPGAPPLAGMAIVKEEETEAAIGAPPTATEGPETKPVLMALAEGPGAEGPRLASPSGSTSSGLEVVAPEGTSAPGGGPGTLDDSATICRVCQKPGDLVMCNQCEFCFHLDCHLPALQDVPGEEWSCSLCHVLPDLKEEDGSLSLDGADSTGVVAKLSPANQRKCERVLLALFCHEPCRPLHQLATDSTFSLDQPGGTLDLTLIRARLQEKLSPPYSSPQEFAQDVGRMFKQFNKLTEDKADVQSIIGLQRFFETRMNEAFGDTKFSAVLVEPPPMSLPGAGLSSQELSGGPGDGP
UniProt P83916: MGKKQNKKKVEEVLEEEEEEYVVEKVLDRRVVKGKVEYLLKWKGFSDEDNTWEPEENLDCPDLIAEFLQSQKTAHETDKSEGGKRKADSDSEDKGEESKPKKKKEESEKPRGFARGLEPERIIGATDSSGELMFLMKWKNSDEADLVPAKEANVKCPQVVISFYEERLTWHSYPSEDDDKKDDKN
UniProt Q13547: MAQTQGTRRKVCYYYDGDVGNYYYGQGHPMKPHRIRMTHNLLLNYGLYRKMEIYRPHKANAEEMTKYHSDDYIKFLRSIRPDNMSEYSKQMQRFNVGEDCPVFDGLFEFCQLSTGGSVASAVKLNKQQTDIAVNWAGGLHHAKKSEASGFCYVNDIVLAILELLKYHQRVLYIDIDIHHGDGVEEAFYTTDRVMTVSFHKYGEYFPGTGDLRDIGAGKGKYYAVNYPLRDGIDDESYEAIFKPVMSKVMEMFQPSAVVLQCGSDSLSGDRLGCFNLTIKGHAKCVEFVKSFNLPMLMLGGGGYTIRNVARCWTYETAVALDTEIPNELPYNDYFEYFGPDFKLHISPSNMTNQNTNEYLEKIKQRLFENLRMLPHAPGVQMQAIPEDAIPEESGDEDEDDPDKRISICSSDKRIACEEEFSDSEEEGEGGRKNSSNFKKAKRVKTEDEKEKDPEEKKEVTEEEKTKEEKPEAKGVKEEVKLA
UniProt Q00987: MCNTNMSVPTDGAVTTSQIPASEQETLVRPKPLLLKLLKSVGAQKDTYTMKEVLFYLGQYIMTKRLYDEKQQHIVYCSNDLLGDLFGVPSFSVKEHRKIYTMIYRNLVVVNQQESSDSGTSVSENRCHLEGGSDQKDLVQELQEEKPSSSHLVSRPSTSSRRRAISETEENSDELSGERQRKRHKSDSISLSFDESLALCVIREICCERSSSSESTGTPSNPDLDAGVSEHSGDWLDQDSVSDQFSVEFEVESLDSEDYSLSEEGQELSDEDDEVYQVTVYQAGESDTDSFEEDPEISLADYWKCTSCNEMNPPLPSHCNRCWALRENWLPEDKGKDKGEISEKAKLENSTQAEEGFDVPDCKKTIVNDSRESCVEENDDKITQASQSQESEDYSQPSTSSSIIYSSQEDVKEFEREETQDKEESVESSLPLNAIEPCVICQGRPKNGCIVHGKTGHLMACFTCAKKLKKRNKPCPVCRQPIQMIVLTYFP

Assay [2] deals with GST-HP1β (heterochromatin protein 1β) (UniProt P83916). The assay can be described thus: pull-down; recombinant GST-HP1β as bait; cell extracts from U2OS cells expressing GFP-KAP1 versions; only the target purified.

These are yes or no findings as the source states them, for the method shown. Binding seen in cells or lysates may run through a third protein. Some entries that bind do so weakly or less than the wild type.

As for HDAC1 (from UniProt Q13547 1-482), the binding result in assay [1] was “binds”. With MDM2 (from UniProt Q00987 1-491), in assay [1], the binding result is listed as “binds”. Regarding “GFP-KAP1 wild type, stably expressed in U2OS cells (from UniProt Q13263 1-835)”, the binding result in assay [2] is “binds”.

The values are drawn from article PMC3245618.
